Laboratory results reported in US20090175873A1.
Results are given in words; binding and its absence hold for the method and conditions named. For some assays here: Binding seen in cells or lysates may run through a third protein. Some entries that bind do so weakly or less than the wild type.

Amino acid sequences for entries named in this document (tags omitted). A change or cut given only in a name is not applied to a line headed by its entry.
UniProt P11087: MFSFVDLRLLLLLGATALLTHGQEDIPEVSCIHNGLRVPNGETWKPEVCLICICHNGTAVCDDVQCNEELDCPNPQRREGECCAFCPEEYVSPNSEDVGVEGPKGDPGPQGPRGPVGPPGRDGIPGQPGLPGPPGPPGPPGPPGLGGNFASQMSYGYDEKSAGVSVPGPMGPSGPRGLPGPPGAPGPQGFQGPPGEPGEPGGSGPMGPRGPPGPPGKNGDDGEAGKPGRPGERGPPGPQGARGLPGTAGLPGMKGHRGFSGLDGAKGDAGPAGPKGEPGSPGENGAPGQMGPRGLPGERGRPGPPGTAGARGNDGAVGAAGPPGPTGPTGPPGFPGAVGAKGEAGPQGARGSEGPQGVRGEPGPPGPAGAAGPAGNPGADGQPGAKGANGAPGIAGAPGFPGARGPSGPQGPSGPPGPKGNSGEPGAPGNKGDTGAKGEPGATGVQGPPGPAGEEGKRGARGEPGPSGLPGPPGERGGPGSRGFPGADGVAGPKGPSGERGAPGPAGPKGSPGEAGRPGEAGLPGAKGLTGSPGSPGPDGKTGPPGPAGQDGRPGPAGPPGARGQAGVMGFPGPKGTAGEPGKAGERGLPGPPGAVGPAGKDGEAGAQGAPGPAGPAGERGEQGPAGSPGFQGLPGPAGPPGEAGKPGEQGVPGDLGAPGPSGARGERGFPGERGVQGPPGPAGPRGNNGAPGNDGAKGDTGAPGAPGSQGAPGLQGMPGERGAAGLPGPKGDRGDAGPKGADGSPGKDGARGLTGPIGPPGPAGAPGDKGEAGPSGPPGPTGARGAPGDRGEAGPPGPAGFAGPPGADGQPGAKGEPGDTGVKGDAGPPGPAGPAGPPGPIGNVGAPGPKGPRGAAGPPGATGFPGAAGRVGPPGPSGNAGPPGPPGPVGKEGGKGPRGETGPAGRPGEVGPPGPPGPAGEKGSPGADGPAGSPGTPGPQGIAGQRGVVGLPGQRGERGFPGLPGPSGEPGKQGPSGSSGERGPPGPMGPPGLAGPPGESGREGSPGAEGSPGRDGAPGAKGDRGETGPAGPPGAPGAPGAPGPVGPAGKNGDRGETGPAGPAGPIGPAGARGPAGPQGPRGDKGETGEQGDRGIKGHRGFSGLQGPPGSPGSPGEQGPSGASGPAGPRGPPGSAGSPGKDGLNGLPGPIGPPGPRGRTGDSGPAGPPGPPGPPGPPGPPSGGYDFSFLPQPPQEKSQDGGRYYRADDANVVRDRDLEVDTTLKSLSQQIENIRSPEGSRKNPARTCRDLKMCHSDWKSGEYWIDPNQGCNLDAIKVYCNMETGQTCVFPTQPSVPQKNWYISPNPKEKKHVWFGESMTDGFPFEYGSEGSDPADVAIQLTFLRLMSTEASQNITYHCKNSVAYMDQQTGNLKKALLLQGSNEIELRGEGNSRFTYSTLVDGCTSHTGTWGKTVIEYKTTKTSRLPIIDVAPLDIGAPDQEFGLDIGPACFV
UniProt Q01149: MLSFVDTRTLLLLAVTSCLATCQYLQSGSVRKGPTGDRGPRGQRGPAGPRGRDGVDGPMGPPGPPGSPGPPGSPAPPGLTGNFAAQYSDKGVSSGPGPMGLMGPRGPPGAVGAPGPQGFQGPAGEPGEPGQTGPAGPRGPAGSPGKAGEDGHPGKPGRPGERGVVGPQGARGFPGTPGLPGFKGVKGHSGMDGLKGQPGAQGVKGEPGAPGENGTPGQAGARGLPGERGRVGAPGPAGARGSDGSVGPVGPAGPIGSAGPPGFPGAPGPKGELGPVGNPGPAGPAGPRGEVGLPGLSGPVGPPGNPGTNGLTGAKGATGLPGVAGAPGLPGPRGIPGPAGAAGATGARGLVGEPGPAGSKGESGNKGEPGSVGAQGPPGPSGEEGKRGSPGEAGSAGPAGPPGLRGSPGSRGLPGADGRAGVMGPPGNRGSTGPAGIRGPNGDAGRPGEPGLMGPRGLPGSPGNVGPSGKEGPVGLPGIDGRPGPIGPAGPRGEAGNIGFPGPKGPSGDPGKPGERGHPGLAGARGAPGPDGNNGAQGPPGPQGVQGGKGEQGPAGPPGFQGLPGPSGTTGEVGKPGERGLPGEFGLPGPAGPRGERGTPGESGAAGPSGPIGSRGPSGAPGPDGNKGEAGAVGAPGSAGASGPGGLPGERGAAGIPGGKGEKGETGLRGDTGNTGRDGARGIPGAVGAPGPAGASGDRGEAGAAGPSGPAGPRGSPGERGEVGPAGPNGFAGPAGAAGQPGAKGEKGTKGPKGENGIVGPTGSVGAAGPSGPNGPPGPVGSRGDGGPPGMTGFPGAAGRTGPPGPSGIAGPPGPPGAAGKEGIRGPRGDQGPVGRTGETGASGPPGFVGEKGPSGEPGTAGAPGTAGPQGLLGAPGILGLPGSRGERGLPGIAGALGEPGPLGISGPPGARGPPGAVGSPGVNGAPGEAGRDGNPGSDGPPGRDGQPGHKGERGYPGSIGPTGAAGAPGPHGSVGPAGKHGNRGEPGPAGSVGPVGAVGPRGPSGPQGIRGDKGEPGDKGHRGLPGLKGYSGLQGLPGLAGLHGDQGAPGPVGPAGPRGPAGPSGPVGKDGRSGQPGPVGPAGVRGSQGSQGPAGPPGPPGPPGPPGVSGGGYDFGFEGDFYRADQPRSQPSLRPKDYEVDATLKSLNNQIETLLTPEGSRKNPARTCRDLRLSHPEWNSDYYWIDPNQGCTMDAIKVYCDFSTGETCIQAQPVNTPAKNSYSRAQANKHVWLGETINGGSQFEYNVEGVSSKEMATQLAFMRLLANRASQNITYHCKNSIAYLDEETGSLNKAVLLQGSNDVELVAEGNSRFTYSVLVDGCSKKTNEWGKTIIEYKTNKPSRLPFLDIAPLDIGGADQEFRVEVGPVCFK
UniProt P06756: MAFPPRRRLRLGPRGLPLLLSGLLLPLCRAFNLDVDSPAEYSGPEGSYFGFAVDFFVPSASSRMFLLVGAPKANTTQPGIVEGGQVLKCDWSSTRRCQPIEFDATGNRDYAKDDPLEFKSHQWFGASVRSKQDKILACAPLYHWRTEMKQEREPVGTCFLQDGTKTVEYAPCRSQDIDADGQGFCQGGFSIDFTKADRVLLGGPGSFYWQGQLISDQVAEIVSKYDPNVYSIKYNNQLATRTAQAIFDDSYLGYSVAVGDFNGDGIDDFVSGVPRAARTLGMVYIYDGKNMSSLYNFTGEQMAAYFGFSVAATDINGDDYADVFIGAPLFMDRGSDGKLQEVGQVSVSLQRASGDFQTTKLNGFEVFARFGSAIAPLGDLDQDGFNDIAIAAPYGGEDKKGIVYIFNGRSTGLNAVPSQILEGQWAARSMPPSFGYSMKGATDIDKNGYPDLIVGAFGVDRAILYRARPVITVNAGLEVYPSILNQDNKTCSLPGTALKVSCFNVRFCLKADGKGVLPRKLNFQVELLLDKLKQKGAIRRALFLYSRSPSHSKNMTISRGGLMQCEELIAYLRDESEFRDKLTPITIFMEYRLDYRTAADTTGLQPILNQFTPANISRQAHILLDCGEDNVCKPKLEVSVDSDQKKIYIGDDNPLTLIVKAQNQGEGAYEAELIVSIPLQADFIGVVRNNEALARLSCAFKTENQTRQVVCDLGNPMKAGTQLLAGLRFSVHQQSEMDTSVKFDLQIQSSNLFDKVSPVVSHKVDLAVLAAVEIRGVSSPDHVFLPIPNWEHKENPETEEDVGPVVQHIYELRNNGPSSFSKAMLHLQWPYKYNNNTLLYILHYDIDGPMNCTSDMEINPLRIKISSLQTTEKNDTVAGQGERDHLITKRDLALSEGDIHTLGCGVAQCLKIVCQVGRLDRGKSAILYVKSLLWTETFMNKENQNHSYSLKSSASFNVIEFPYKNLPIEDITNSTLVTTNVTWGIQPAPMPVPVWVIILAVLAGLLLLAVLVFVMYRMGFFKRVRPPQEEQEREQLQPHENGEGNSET
UniProt P05106: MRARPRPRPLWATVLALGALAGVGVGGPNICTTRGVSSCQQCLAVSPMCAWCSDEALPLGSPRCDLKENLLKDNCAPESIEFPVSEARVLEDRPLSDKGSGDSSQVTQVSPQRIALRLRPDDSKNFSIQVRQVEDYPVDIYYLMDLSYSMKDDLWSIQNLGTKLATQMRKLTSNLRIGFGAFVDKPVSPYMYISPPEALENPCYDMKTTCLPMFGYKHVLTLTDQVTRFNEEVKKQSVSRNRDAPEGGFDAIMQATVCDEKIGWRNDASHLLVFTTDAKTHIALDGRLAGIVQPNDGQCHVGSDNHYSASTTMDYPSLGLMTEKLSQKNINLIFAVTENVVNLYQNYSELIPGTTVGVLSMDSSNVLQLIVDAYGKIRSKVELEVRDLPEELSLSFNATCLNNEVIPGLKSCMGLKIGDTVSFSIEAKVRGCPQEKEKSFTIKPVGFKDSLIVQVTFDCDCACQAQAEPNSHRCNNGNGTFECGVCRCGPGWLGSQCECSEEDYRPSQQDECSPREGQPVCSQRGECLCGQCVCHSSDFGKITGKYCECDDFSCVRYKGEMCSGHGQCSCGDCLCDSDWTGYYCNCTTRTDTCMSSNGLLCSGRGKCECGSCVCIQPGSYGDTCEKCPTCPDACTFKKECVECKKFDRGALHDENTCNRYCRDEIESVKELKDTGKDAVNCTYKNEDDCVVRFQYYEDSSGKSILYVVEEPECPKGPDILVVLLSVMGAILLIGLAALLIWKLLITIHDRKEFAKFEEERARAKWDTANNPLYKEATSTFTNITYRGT

B1: mouse legumain (enzyme, UniProt O89017 18-325, looked up)
chain: VPVGVDDPEDGGKHWVVIVAGSNGWYNYRHQADACHAYQIIHRNGIPDEQIIVMMYDDIANSEENPTPGVVINRPNGTDVYKGVLKDYTGEDVTPENFLAVLRGDAEAVKGKGSGKVLKSGPRDHVFIYFTDHGATGILVFPNDDLHVKDLNKTIRYMYEHKMYQKMVFYIEACESGSMMNHLPDDINVYATTAANPKESSYACYYDEERGTYLGDWYSVNWMEDSDVEDLTKETLHKQYHLVKSHTNTSHVMQYGNKSISTMKVMQFQGMKHRASSPISLPPVTHLDLTPSPDVPLTILKRKLLRTN
B2: human legumain (enzyme)
chain: IPIDDPEDGGKHWVVIVAGSNGWYNYRHQADACHAYQIIHRNGIPDEQIVVMMYDDIAYSEDNPTPGIVINRPNGTDVYQGVPKDYTGEDVTPQNFLAVLRGDAEAVKGIGSGKVLKSGPQDHVFIYFTDHGSTGILVFPNEDLHVKDLNETIHYMYKHKMYRKMVFYIEACESGSMMNHLPDNINVYATTAANPRESSYACYYDEKRSTYLGDWYSVNWMEDSDVEDLTKETLHKQYHLVKSHTNTSHVMQYGNKTISTMKVMQFQGMKRKASSPVPLPPVTHLDLTPSPDVPLTIMKRKLMNTN

Legend:
collagen I (mouse) = collagen I (mouse) (UniProt P11087+Q01149); assay: double immunofluorescence staining of tumour sections (co-localization)
[1] = target: T1, αvβ3 integrin of MDA-MB-231 human mammary carcinoma cells (human) (UniProt P06756+P05106); assay: co-immunoprecipitation from MDA-MB231 cell lysates with anti-integrin antibodies, western blot
[2] = target: T1, αvβ3 integrin of MDA-MB-231 human mammary carcinoma cells (human); assay: reciprocal co-immunoprecipitation (anti-legumain and anti-αvβ3 antibodies), western blot
[3] = target: T1, αvβ3 integrin of MDA-MB-231 human mammary carcinoma cells (human); assay: reciprocal co-immunoprecipitation from cell lysates, western blot
[4] = target: T1, αvβ3 integrin of MDA-MB-231 human mammary carcinoma cells (human); assay: immunohistochemical double staining of MDA-MB-231 cells with anti-αvβ3 and anti-legumain antibodies

Row | binding (collagen I (mouse)) | binding [1] | binding [2] | binding [3] | binding [4] | Binder
1 | binds |  |  |  |  | B1
2 |  | binds | binds | binds | binds | B2
